Experiment: RP, Waters ACQUITY UPLC BEH C18, 38 °C, 0.24 mL/min; A: water + 0.1% formic acid, pH 3; B: acetonitrile + 0.1% formic acid, pH 3; gradient (min/%B) 0/0 0.25/0 0.4/9 0.8/17 1.9/100 2.1/100 2.11/0 3/0
Conditions: stereoisomer not certain

LC retention time: 0.25 min
SMILES: O=C(O)C1=CC(O)C(O)C(O)C1 (single isomer, unassigned; (-)) [(-)Shikimic acid]

— the RepoRT retention time repository (doi:10.1093/pcp/pcn183)
